Data source: PubChem BioAssay AID652243 (Drosophila RNAi Screening Center, 2013)

- Test: 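Fly genes required for human androgen receptor driven transcription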 (primary screen)
- Cells: Drosophila S2R+ cells
- Reagent: long dsRNA against Drosophila genes
- Duration: 72 h (48 h, then 24 h hormone)
- Treatment: synthetic androgen R1881 at 10 nM for 24 h
- Read-out: 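Firefly light from an androgen-responsive reporter and Renilla control light per well, raw and unnormalised, for each of two replicates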
- Scale: firefly reporter light: higher = more light from androgen-responsive reporter; Renilla control light: higher = more constitutive control signal (cell number, transfection)
- Hit rule: 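Across duplicate plates, a knock-down whose log firefly/Renilla ratio shifted a set fold down or up from the GFP/LacZ control mean was a hit; the downward cut appears as both 1.5 and 3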
- Meaning of the calls: active = hit: reporter lowered or raised; inactive = no hit
In all, the deposit lists about 24,000 reagents; shown is a random part of those with a known target gene and a result. Of all reagents, 246 (1%) are marked active. 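Plates not normalised; calls are printed but the firefly/Renilla ratio behind them is not deposited; fold cut for lowering reported inconsistently.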 The raw values are shown without normalisation. Entries without a mark were called inactive. The numbers tell different reagents against one gene apart. Names joined by + are all predicted targets of the reagent. The record does not give: the amount of reagent.

no.	gene	reagent	firefly reporter light, replicate 1	firefly reporter light, replicate 2	Renilla control light, replicate 1	Renilla control light, replicate 2
1	rngo	1	5.24e5	4.56e5	2.64e6	2.81e6
2	rngo	2	4.13e5	4.79e5	8.49e5	7.69e5
3	Ccp84Ae	1	5.57e5	3.79e5	2.79e6	2.97e6
4	Ccp84Ae	2	2.65e5	3.55e5	6.19e5	1.16e6
5	Ccp84Ae	3	7.13e5	7.33e5	1.60e6	1.81e6
6	CG31867	1	1.22e5	99091	1.04e6	8.67e5
7	CG30016	1	1.94e5	2.33e5	4.18e5	79531
8	hb	1	17662	19542	1.69e5	2.10e5
9	hb	2	1.48e6	6.17e5	4.05e6	1.61e6
10	CG40188 (retired record)	1	1.08e6	9.53e5	2.35e6	2.55e6
11	GramD1B	1	1.40e5	1.22e5	9.20e5	7.25e5
12	GramD1B	2	6.66e5	6.54e5	8.99e5	8.66e5
13	GramD1B	3	1.13e6	8.30e5	8.86e5	8.52e5
14	GramD1B	4	2.83e5	2.67e5	1.11e6	1.06e6
15	gammaSnap2	1	2.08e5	1.79e5	2.57e6	2.83e6
16	Aps	1	2.45e5	1.97e5	3.22e6	2.90e6
17	CAP	1	1.16e6	5.18e5	2.26e6	1.07e6
18	CAP	2	83544	1.00e5	1.77e6	2.44e6
19	CAP	3	4.38e5	2.12e5	2.50e6	1.74e6
20	CAP	4	3.44e5	2.57e5	2.54e6	2.22e6
21	miple1	1	1.15e5	1.62e5	2.02e6	2.22e6
22	CG32069 + Blos2	1	8.20e5	7.94e5	2.02e6	1.81e6
23	bmm	1	9.34e5	6.52e5	2.29e6	2.30e6
24	CG7747	1	8.73e5	1.01e6	1.87e6	1.63e6
25	CG7747	2	6.77e5	5.31e5	7.03e5	5.53e5
26	Dus1	1	1.20e5	1.14e5	6.97e5	6.71e5
27	CG7988	1	1.51e5	1.63e5	1.48e6	1.59e6
28	CG13081	1	1.75e5	1.42e5	1.48e6	1.39e6
29	CtsL4	1	1.96e5	3.20e5	1.51e6	1.57e6
30	Bruce	1	1.09e5	1.27e5	1.75e6	1.88e6
31	CG13995	1	2.75e5	2.55e5	2.02e6	2.24e6
32	CG13995	2	3.85e5	3.39e5	3.31e6	2.27e6
33	CG13995	3	8.02e5	1.20e6	1.60e6	1.89e6
34	CG13995	4	7.09e5	8.10e5	1.70e6	1.53e6
35	CG32750	1	2.66e5	3.63e5	2.18e6	2.65e6
36	Loxl1	1	1.51e5	1.58e5	1.82e6	2.31e6
37	Kmn1	1	5.95e5	4.32e5	4.61e6	2.79e6
38	Kmn1	2	3.26e5	2.67e5	5.11e5	4.97e5
39	Tsp42Ef	1	4.96e5	4.10e5	3.45e6	2.29e6
40	CG14137	1	2.54e5	1.80e5	2.57e6	1.81e6
41	CG14137	2	7.56e5	7.85e5	1.69e6	1.53e6
42	CG3021	1	1.62e5	1.92e5	2.68e6	2.29e6
43	CG3021	2	2.60e5	2.65e5	4.69e6	3.89e6
44	Teh2	1	1.66e5	95718	1.51e6	1.54e6
45	Teh2	2	5.24e5	5.59e5	1.67e6	1.08e6
46	CG8006	1	1.00e6	1.00e6	8.61e5	1.57e6
47	BRWD3	1	69605	53539	2.35e5	1.97e5
48	BRWD3	2	2.36e5	2.71e5	1.04e6	1.14e6
49	tko	1	4.64e5	3.93e5	3.79e6	2.64e6
50	tko	2	2.10e5	2.92e5	7.62e5	5.43e5
51	Xe7	1	85763	84947	2.37e6	1.61e6
52	CG7252	1	1.00e6	5.25e5	1.22e6	7.83e5
53	CG7252	2	1.05e6	9.06e5	5.30e5	4.02e5
54	cmet	1	1.55e5	1.96e5	1.36e6	1.66e6
55	sli	1	58447	41424	6.78e5	6.78e5
56	sli	2	4.81e5	1.25e6	1.24e6	2.79e6
57	sli	3	5.11e5	5.67e5	1.09e6	1.09e6
58	RfC4	1	9.40e5	6.05e5	1.67e6	1.88e6
59	RfC4	2	8.07e5	6.36e5	1.29e6	1.29e6
